Results published in CN110903391A.
These are yes or no findings as the source states them, for the method shown. Some results given as binding are weak or reduced against the parent protein; the word gives no strength.

Sequences of proteins named here, by UniProt entry; tags and fusion partners are left off. A change or cut given only in a name is not applied to a line headed by its entry. Residues count along the entry.
UniProt Q9NZQ7: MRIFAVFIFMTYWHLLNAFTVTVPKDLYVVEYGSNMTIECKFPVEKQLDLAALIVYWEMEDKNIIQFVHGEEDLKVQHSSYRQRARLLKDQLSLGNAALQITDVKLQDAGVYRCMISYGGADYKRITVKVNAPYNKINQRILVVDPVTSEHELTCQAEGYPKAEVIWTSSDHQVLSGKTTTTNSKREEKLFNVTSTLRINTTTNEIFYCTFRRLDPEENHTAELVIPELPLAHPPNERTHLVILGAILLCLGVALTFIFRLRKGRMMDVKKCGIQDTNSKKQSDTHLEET
PD-L1 on 293T-PD-L1细胞: residues 19-290 of Q9NZQ7

Legend:
[1] = molecular target: PD-L1-ECD-hFc (human) (UniProt Q9NZQ7); test: summary of ELISA (tables 5-6)
[2] = molecular target: PD-L1 on 293T-PD-L1细胞 (human) (UniProt Q9NZQ7); test: summary of FACS (tables 7-8)
[3] = molecular target: PD-L1-ECD-hFc (human) (UniProt Q9NZQ7); test: ELISA, PD-L1-ECD-hFc coated
[4] = molecular target: PD-L1 on 293T-PD-L1细胞 (human) (UniProt Q9NZQ7); test: FACS on 293T-PD-L1 cells

Measured: binding

B1: 10E9C7G2人源化完整抗体 (antibody, human IgG1, kappa, V domains shown)
VH: QVQLQQSGPGLVKPSQTLSLTCAISGDSITSGYWNWIRQSPSRGLEYMGYISYTGSTYYNLSLKSRITINRDTSKNQYSLQLNSVTPEDTAVYYCARGDYGSDWPPWFAYWGQGTTVTVSS
VL: DIQMTQSPSSLSASVGDRVTITCSASSSISSNSLQWYQQKPGKAPKLLIYRTTNLPSGVPSRFSGSGSGTDYTLTISSLQPEDFATYYCQQSSGLPLTFGQGTKLEIKR
binds: all assays above
